Results taken from US20240011107A1, “LIVE CELL ASSAY FOR PROTEASE INHIBITION” (priority 2020, published 2024).
For at least one compound, name, drawing or mass did not settle the structure.

Legend:
Type in all cases: cell-based
[1] = target: T1, SARS-CoV-2 M^pro (Severe acute respiratory syndrome coronavirus 2, UniProt P0DTD1)
[2] = target: T1, SARS-CoV-2 M^pro; remark: listed apart in the source
[3] = target: HCoV-229E M^pro (Human coronavirus 229E, UniProt P0C6X1)
[4] = target: HCoV-NL63 M^pro (Human coronavirus NL63, UniProt P0C6X5, DELINS864-2931GGS); conditions: increasing concentrations, FIGS. 10A, 10B; lowest of the three reporters

For `CC(C)(C)NC(=O)N[C@H](C(=O)N1C[C@H]2[C@@H]([C@H]1C(=O)NC(CC1CCC1)C(=O)C(N)=O)C2(C)C)C(C)(C)C` (some centres unmarked) [boceprevir], the “restoration of expression and eGFP fluorescence of the wild type construct” value [1] was “weaker but still significant effect”, the “signal fold change over background (DMSO), rank among coronavirus M^pro reporters” value [2] was “higher relative levels of signal/activity” and the “signal fold change over background (DMSO), luciferase-based reporter compared with eGFP reporter” value ([2]; FIGS. 9A, 9B, cell type not stated) was “higher relative levels of signal/activity”. The “signal fold change over background (DMSO), rank among coronavirus M^pro reporters” value [3] was “followed by HCoV-229E M^pro” and the “signal fold change over background (DMSO), rank among coronavirus M^pro reporters” value [4] was “then HCoV-NL63 M^pro”.
